Laboratory results: PubChem BioAssay AID686943 (Drosophila RNAi Screening Center, 2013)

Test: 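Search across the genome for regulators of signalling from receptor tyrosine kinase to ERK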 (primary screen)
Cells: Drosophila S2R+ haemocyte-like cells expressing YFP-tagged ERK (Rolled)
Reagent: long dsRNA against Drosophila genes
Challenge: insulin stimulation versus unstimulated cells; dose and duration not given
Detection: 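Per-plate z-scores of phospho-ERK immunostaining normalised to YFP-tagged ERK, measured with and without insulin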
Reading the numbers: replicate 1, z-score of dpERK with insulin: higher = more active ERK per ERK-YFP after insulin
The deposit covers about 23,000 reagents; shown is a random part of those with a known target gene and a result. 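Extra replicates exist only for a retested subset of genes; insulin dose and duration not given; both raised and lowered dpERK matter.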 Not all columns of the deposit are shown. The record does not give: the amount of reagent, the time to read-out.

The opening 2 entries, to show the layout:
Cht8 (GeneID 37390) [DRSC04546]
- replicate 1, z-score of dpERK with insulin: -1.19

CG4250 (GeneID 37599) [DRSC04455]
- replicate 1, z-score of dpERK with insulin: -0.24

Results, from the first entry:
Cht8 (GeneID 37390) [DRSC04546]
- replicate 1, z-score of dpERK with insulin: -1.19

CG4250 (GeneID 37599) [DRSC04455]
- replicate 1, z-score of dpERK with insulin: -0.24

CG9541 (GeneID 34220) [DRSC03257]
- replicate 1, z-score of dpERK with insulin: 0.09

yellow-e2 (GeneID 41652) [DRSC15169]
- replicate 1, z-score of dpERK with insulin: 0.15

SerRS (GeneID 33518) [DRSC00496]
- replicate 1, z-score of dpERK with insulin: -0.02

CG7016 (GeneID 42968) [DRSC16174]
- replicate 1, z-score of dpERK with insulin: 0.79

Ski6 (GeneID 34721) [DRSC02491]
- replicate 1, z-score of dpERK with insulin: 0.18

CG33178 (GeneID 318913) [DRSC19950]
- replicate 1, z-score of dpERK with insulin: -0.44

mRpL48 (GeneID 33348) [DRSC00506]
- replicate 1, z-score of dpERK with insulin: -1.98

CG7006 (GeneID 42963) [DRSC16169]
- replicate 1, z-score of dpERK with insulin: -0.7

CG11710 (GeneID 33044) [DRSC20485]
- replicate 1, z-score of dpERK with insulin: 0.12

CG1662 (GeneID 32296) [DRSC19754]
- replicate 1, z-score of dpERK with insulin: 0.9
